The values that follow are results of earlier work, collected in article PMC6450621, “Changes of drug pharmacokinetics mediated by downregulation of kidney organic cation transporters Mate1 and Oct2 in a rat model of hyperuricemia” (PLoS ONE, 2019).

For this series the following is noted: cephalexin; used for control and hyperuricemic rats; cited from earlier work.

Take `CC1=C(C(=O)O)N2C(=O)[C@@H](NC(=O)[C@H](N)c3ccccc3)[C@H]2SC1` [Cephalexin, cephalexin]: the fu was 0.82 [28].
